From PubChem BioAssay record AID1347118 (NCATS, 2019).

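TC32 Ewing sarcoma cells were treated for 48 hours, and the count of metabolically active cells was read by luminescence as a stand-in for viability. Each compound was run as an 11-point dilution series; the listed concentration columns span about 0.00001 to 95 µM. The number is the fitted potency, the concentration giving half of the maximal cell-killing effect; a lower value means a more potent compound. Calls follow the curve class of the fitted dose curve: actives score 40 to 100, inconclusives score 1 to 39, and inactives (class 4) score 0.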

Values are in nM. All entries here are filed as inconclusive. Only part of the assay is shown, chiefly results filed as inconclusive. A potency from a partial, single-point or poor curve is only a rough figure. Some entries filed as inconclusive have a full curve. The first word of each remark tells which way the curve ran; it can be opposite to the aim of the assay. Activity scores are not listed here.

| structure | Potency (nM) | curve |
|---|---|---|
| `CC(C)(C)NC(=O)[C@H]1CN(Cc2cccnc2)CCN1C[C@@H](O)C[C@@H](Cc1ccccc1)C(=O)N[C@H]1c2ccccc2C[C@H]1O` | 29330 | cytotoxic, single point |
| `C[C@@]12OC(=O)[C@]1([C@@H](O)[C@@H]1C=CCCC1)NC(=O)[C@H]2CCCl` | 104.1 | cytotoxic, full curve, poor fit |
| `COC(=O)C1C2CC3c4[nH]c5cc(OC)ccc5c4CCN3CC2CC(OC(=O)c2cc(OC)c(OC)c(OC)c2)C1OC` (centres undefined) | 369.2 | cytotoxic, full curve, poor fit |
| `CC(=O)SCC(Cc1ccccc1)C(=O)NCC(=O)OCc1ccccc1` (centres undefined) | 26140 | cytotoxic, single point |
| `CC=C(C)C(=O)O[C@H]1C(C)=C[C@]23C(=O)[C@@H](C=C(CO)[C@@H](O)[C@]12O)[C@H]1[C@@H](C[C@H]3C)C1(C)C` | 32909 | cytotoxic, single point |
| `Cc1cn2c(-c3cn[nH]c3)cnc2c(Nc2ccc(C(=O)N3CCNCC3)cc2F)n1` | 18506 | cytotoxic, partial curve, poor fit |
| `Cc1c(Cn2c(C)nc3c(C(=O)O)cc(N4CCOCC4)cc32)cccc1C(F)(F)F` | 26140 | cytotoxic, single point |
| `CN(C)CCN(Cc1ccsc1)c1ccccn1` | 20764 | cytotoxic, partial curve |
| `Cn1cc(CNCC2CCN(c3ncc(C(=O)NO)cn3)CC2)c2ccccc21` | 92.8 | cytotoxic, full curve, poor fit |
| `Cc1ccc2c(c1)C(=O)[C@]1(O)CCN(c3ccccc3)C1=N2` | 16493 | cytotoxic, partial curve |
| `O=C(C=Cc1cccnc1)NCCCCC1CCN(C(=O)c2ccccc2)CC1` | 18506 | cytotoxic, single point |
| `O=C(Nc1cn[nH]c1-c1nc2ccc(CN3CCOCC3)cc2[nH]1)NC1CC1` | 4143 | cytotoxic, full curve, poor fit |
| `O=C(CCCN1CC=C(n2c(=O)[nH]c3ccccc32)CC1)c1ccc(F)cc1` | 18506 | cytotoxic, single point |
| `CCc1c2c(nc3ccc(O)cc13)-c1cc3c(c(=O)n1C2)COC(=O)[C@]3(O)CC` | 9.3 | cytotoxic, full curve, poor fit |
| `COc1ccc(C(=O)c2ccccc2)c(O)c1` | 2.6 | rising, full curve |
| `CCOc1cc2ncc(C#N)c(Nc3ccc(OCc4ccccn4)c(Cl)c3)c2cc1NC(=O)C=CCN(C)C` | 4143 | cytotoxic, full curve |
| `CC(=O)O[C@]1(C(C)=O)CC[C@@H]2[C@@H]3C[C@H](C)C4=CC(=O)CC[C@]4(C)[C@H]3CC[C@@]21C` | 26140 | cytotoxic, single point |
| `CC(C)=CCC/C(C)=C/CC/C(C)=C/C(=O)OCC(=O)[C@@]1(O)CC[C@H]2[C@@H]3CCC4=CC(=O)C=C[C@]4(C)[C@H]3[C@@H](O)C[C@@]21C` | 16493 | cytotoxic, partial curve |
| `O=C(C=Cc1ccc(CN(CCO)CCc2c[nH]c3ccccc23)cc1)NO` | 3.7 | cytotoxic, full curve, poor fit |
| `COc1ccc(C(=O)CC(=O)c2ccc(C(C)(C)C)cc2)cc1` | 18506 | cytotoxic, partial curve |
| `Cc1nc(Nc2n[nH]c3c2CN(C(=O)N[C@H](CN(C)C)c2ccccc2)C3(C)C)c2sccc2n1` | 92.8 | cytotoxic, full curve, poor fit |
| `COc1ccc2c(Oc3ccc(NC(=O)c4c(C)n(CC(C)(C)O)n(-c5ccccc5)c4=O)cc3F)ccnc2c1` | 23297 | cytotoxic, single point |
| `O=C1NC(=O)C(=Cc2ccc3c(c2)OC(F)(F)O3)S1` | 2330 | cytotoxic, full curve, poor fit |
| `CC(=O)O[C@@H]1C(=O)O[C@@H]2[C@H]1OC(=O)[C@@H]2OC(C)=O` | 16493 | cytotoxic, partial curve |
| `CCN(CC)CCNC(=O)c1c(C)[nH]c(C=C2C(=O)Nc3ccc(F)cc32)c1C` | 21.4 | cytotoxic, full curve, poor fit |
| `CC(=O)N1CCN(c2ccc(OCc3nn(C)c(C)c3-c3cccc4c(CCCOc5cc(C)c(Cl)c(C)c5)c(C(=O)O)n(Cc5cccnc5)c34)cc2)CC1` | 1041 | cytotoxic, full curve |
| `COc1ccc(-c2nc(N3CCOCC3)c3sc(CN(C)c4ncc(C(=O)NO)cn4)cc3n2)cn1` | 414.3 | cytotoxic, full curve, poor fit |
| `CCC(=O)OCC(=O)[C@@]1(OC(=O)CC)[C@@H](C)C[C@@H]2[C@H]3CCC4=CC(=O)C=C[C@]4(C)[C@@]3(F)[C@@H](O)C[C@@]21C` | 11676 | cytotoxic, single point |
| `CN1CCN(CCCN2c3ccccc3Sc3ccc(Cl)cc32)CC1` | 4648 | cytotoxic, full curve, poor fit |
| `O=C(Nc1cccc(Br)c1)c1cccc(S(=O)(=O)N2CCCCCC2)c1` | 29330 | cytotoxic, single point |

The last 4 entries again:

- COc1ccc(-c2nc(N3CCOCC3)c3sc(CN(C)c4ncc(C(=O)NO)cn4)cc3n2)cn1 | Potency 414.3 nM (cytotoxic, full curve, poor fit)
- CCC(=O)OCC(=O)[C@@]1(OC(=O)CC)[C@@H](C)C[C@@H]2[C@H]3CCC4=CC(=O)C=C[C@]4(C)[C@@]3(F)[C@@H](O)C[C@@]21C | Potency 11676 nM (cytotoxic, single point)
- CN1CCN(CCCN2c3ccccc3Sc3ccc(Cl)cc32)CC1 | Potency 4648 nM (cytotoxic, full curve, poor fit)
- O=C(Nc1cccc(Br)c1)c1cccc(S(=O)(=O)N2CCCCCC2)c1 | Potency 29330 nM (cytotoxic, single point)